At least one read-out could not be matched to a standard name with certainty.
System: retinoic acid receptors α, β or γ
Assay: Competitive binding with ³H-T-RA to nucleosol of RAR-transfected COS-1 cells
Set-up: species or system human
Conditions: competition with ³H-T-RA, range over RARs α, 4°C, read-out: EC₅₀ (effective concentrations to inhibit 50% of binding)
Method: Competitive binding studies were performed as follows. COS-1 cells were transfected with the cDNAs encoding RARs α, β or γ in the expression vector pSG5 (described in Example 1). The cells were cultured for 72 hours and the nucleosol fraction isolated (14). Nucleosol fractions were incubated (14) at 4°C for 30 minutes with 5 nM ³H-T-RA with various concentrations of unlabeled 13-cis RA. Bound was separated from free radioactivity using PD10 columns as described in Example 1 above.

## CC1=C(/C=C/C(C)=C/C=C/C(C)=C/C(=O)O)C(C)(C)CCC1 [T-RA, all-trans retinoic acid]
  EC50: 5 to 15 nM
